{
  "source": "PubChem BioAssay AID504834",
  "about": "(National Center for Advancing Translational Sciences (NCATS), 2011)",
  "note": "About 22,000 (6.9%) of roughly 320,000 compounds were called active. The inconclusive results got no clear call from the source; some entries with a clear call stand among them for comparison. The call rests on the fitted dose curve; in most records, active means well fitted inhibition curve with a large enough effect; inconclusive means small, poorly fitted or top-dose-only effect, or another doubt; inactive means no such curve, though single readings can be large or run the other way. Potencies beside an inconclusive call are fits to weak or partial responses and may not hold up. Potency means the concentration at half of the fitted maximal effect.",
  "data": [
    {"assay": "Primary qHTS for delayed death inhibitors of the malarial parasite plastid, 96 hour incubation", "conditions": "P. falciparum luciferase reporter growth; series mostly up to 28.7 µM", "summary_of_the_method": "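P. falciparum expressing integrated firefly luciferase, in erythrocytes at 2% hematocrit, 0.05% parasitemia, incubated with compounds 96 h at 37 C, 5% CO2. Growth inhibition read as loss of luminescence; two-generation exposure targets delayed-death apicoplast inhibitors.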", "values": [
      {"smiles": "COc1cc(-c2c(-c3cc(OC)c(OC)c(OC)c3)noc2C)ccc1F", "Potency": "inconclusive: 18.5 µM [inhibitor, single point]"},
      {"smiles": "CCCCCCC(=O)c1c(C)[nH]c(C(=O)OCC)c1C", "Potency": "inactive"},
      {"smiles": "CN1N=C(C(=O)N2CCCC(N3CCN(c4ccc(F)cc4)CC3)C2)CCC1=O", "note": "(stereo not given)", "Potency": "inconclusive: 13.1 µM [inhibitor, partial curve, poor fit]"},
      {"smiles": "Cc1ccc2nc(SCC(=O)Nc3ccc(F)cc3F)[nH]c2c1", "Potency": "inconclusive: 18.5 µM [inhibitor, single point]"},
      {"smiles": "Cc1cc(Br)cn2ccnc12", "Potency": "inconclusive: 0.0738 µM [inhibitor, full curve, poor fit]"},
      {"smiles": "COc1ccc(OC)c(S(=O)(=O)Nc2c(C)n(C)n(-c3ccccc3)c2=O)c1", "Potency": "active: 14.7 µM"},
      {"smiles": "COc1ccc(C(CCN2CCCC2)c2c(O)cc(OC)cc2OC)cc1", "note": "(stereo not given)", "Potency": "active: 2.94 µM"},
      {"smiles": "COc1ccc(NC(=O)CCNC(=O)Cn2cnc3ccccc3c2=O)c(OC)c1", "Potency": "inconclusive: 0.0026 µM [inhibitor, full curve, poor fit]"},
      {"smiles": "COc1ccccc1Cn1c(C(C)C)nc2ccccc21", "Potency": "inconclusive: 13.1 µM [inhibitor, single point]"},
      {"smiles": "CN(C(=O)Oc1ccc([N+](=O)[O-])cc1)c1ccccc1", "Potency": "inconclusive: 18.5 µM [inhibitor, single point]"},
      {"smiles": "Cc1ccn(C(=O)c2cc3c(C)nn(-c4ccccc4)c3s2)n1", "Potency": "inconclusive: 0.0586 µM [inhibitor, full curve, poor fit]"},
      {"smiles": "NC(=O)[C@@H]1CCCN1Cc1nc(-c2ccc(C(F)(F)F)cc2)no1", "Potency": "inconclusive: 16.5 µM [inhibitor, single point]"},
      {"smiles": "C#CCNC(=O)C1=C[C@H](c2cn(C(C)=O)c3ccccc23)[C@@H](CCCO)[C@H](OCC)O1", "Potency": "inconclusive: 10.4 µM [inhibitor, single point]"},
      {"smiles": "O=C(c1cnn2c(C(F)F)cc(-c3ccccc3)nc12)N1CCCc2ccccc21", "Potency": "inconclusive: 2.62 µM [inhibitor, single point]"},
      {"smiles": "Cc1cccc(N2CCN(C(=O)C3CCC(=O)N(Cc4ccccc4F)C3)CC2)c1C", "note": "(stereo not given)", "Potency": "active: 10.4 µM"},
      {"smiles": "COc1ccc(NC(=O)CN(C)CC(=O)Nc2cccc(F)c2)cc1Cl", "Potency": "inconclusive: 11.7 µM [inhibitor, single point]"},
      {"smiles": "CCn1cnc2c1c(=O)n(CC(=O)Nc1cc(C)on1)c(=O)n2Cc1ccccc1", "Potency": "inconclusive: 10.4 µM [inhibitor, single point]"},
      {"smiles": "COc1cc(NC(=S)NCCCN2CCOCC2)cc(OC)c1", "Potency": "inactive"},
      {"smiles": "O=c1c(Cl)c(Cl)cnn1-c1ccccc1", "Potency": "inconclusive: 16.5 µM [inhibitor, partial curve, poor fit]"},
      {"smiles": "COc1ccccc1N1CCN(C(=O)c2oc3ccccc3c2C)CC1", "Potency": "inconclusive: 11.7 µM [inhibitor, single point]"},
      {"smiles": "O=C(c1ccco1)N1CCn2c1nc1ccccc12", "Potency": "inactive"},
      {"smiles": "COc1ccc(C)cc1NC(=O)C(Sc1nnc(-c2cccs2)o1)c1ccccc1", "note": "(stereo not given)", "Potency": "inconclusive: 8.28 µM [inhibitor, partial curve, poor fit]"},
      {"smiles": "O=C(CCC(=O)N1CCOc2ccc(Cl)cc21)NCCN1CCOCC1", "Potency": "inactive"},
      {"smiles": "Cc1cccc(NC(=S)NCCN2CCOCC2)c1C", "Potency": "inconclusive: 9.28 µM [inhibitor, partial curve]"},
      {"smiles": "CCOc1ccc(CCNC(=O)CSc2nc3ncc(Cl)cc3[nH]2)cc1OCC", "Potency": "inconclusive: 18.5 µM [inhibitor, partial curve, poor fit]"},
      {"smiles": "Cc1ccc(C(=O)OC(C)C(=O)NC2CCCCC2C)cc1S(=O)(=O)N1CCCCC1", "note": "(stereo not given)", "Potency": "inconclusive: 18.5 µM [inhibitor, single point]"},
      {"smiles": "CCn1c(SC)nc2c(c1=O)SC(C)C2", "note": "(stereo not given)", "Potency": "active: 2.33 µM"},
      {"smiles": "O=C(Cn1ncc2c(=O)oc3ccccc3c21)N(Cc1ccco1)C1CCCCC1", "Potency": "inconclusive: 18.5 µM [inhibitor, partial curve, poor fit]"},
      {"smiles": "O=C(NCc1ccc(Cl)cc1)c1ccc(OCC2CCCO2)cc1", "note": "(stereo not given)", "Potency": "inactive"},
      {"smiles": "CC1Cc2ccccc2N1C(=O)CSc1nnc(-c2ccccc2)c(-c2ccccc2)n1", "note": "(stereo not given)", "Potency": "inactive"},
      {"smiles": "C=C(C)COc1ccc2c(C)c(CCC(=O)N3C[C@H]4C[C@@H](C3)c3cccc(=O)n3C4)c(=O)oc2c1", "Potency": "active: 2.62 µM"},
      {"smiles": "Cc1cccc(NC(=S)NNC(=O)c2ccccc2Br)c1", "Potency": "inactive"},
      {"smiles": "COc1ccccc1N1CCN(C(c2ccc(Cl)cc2)c2nnnn2C(C)(C)C)CC1", "note": "(stereo not given)", "Potency": "inconclusive: 11.7 µM [inhibitor, single point]"},
      {"smiles": "Cc1ccc2nc(NC(=O)c3cccc(-c4cc5ccccc5oc4=O)c3)sc2c1", "Potency": "inactive"},
      {"smiles": "O=C(Nc1ccc(N2CCN(C(=O)c3ccco3)CC2)cc1)c1cccc(F)c1", "Potency": "inconclusive: 18.5 µM [inhibitor, single point]"},
      {"smiles": "O=C(CN1C(=O)NC2(CCc3ccccc32)C1=O)NCCc1ccccc1", "note": "(stereo not given)", "Potency": "inactive"},
      {"smiles": "O=C(Nc1ccccc1)c1nnn(Cc2ccccc2)c1NC(=O)C(F)(F)F", "Potency": "inactive"},
      {"smiles": "Cc1ccc(NS(=O)(=O)c2ccc(NC(=O)c3cccc(NC(=O)C(C)C)c3)cc2)cc1", "Potency": "active: 1.65 µM"},
      {"smiles": "CC(C)C(C(=O)NCC1CCCO1)N(Cc1ccccc1)C(=O)CNS(=O)(=O)c1ccccc1", "note": "(stereo not given)", "Potency": "inactive"},
      {"smiles": "CN(C)/C=C1\\SC(=S)N(c2ccc(Br)cc2)C1=O", "Potency": "inactive"},
      {"smiles": "CCOC(=O)C1CCN(C(c2cccc(OC)c2)c2sc3nc(C)nn3c2O)CC1", "note": "(stereo not given)", "Potency": "inconclusive: 8.28 µM [inhibitor, partial curve]"},
      {"smiles": "O=C(Nc1cccc(F)c1)C1CCN(C(=O)Cc2ccccc2)CC1", "Potency": "inconclusive: 0.522 µM [inhibitor, full curve, poor fit]"},
      {"smiles": "COc1ccc(S(=O)(=O)N2CCCCCC2)cc1NC(=O)Cc1cc(OC)c(OC)c(OC)c1", "Potency": "active: 3.7 µM"},
      {"smiles": "CC(C)CNC(=O)c1cccc(NC(=O)CSc2ccccc2)c1", "Potency": "inconclusive: 18.5 µM [inhibitor, single point]"},
      {"smiles": "S=C1SCN(Cc2cccnc2)CN1Cc1cccnc1", "Potency": "inconclusive: 4.65 µM [inhibitor, full curve, poor fit]"},
      {"smiles": "CC(C)(C)OC(=O)NCCCC[C@H](NC(=O)c1[nH]cnc1C(=O)N[C@@H](Cc1ccccc1)C(=O)OC(C)(C)C)C(=O)OC(C)(C)C", "Potency": "active: 3.7 µM"},
      {"smiles": "COc1ccc(C2C(C(=O)Nc3ccc(F)cc3)=C(C)Nc3nc(CCCO)nn32)cc1", "note": "(stereo not given)", "Potency": "inconclusive: 18.5 µM [inhibitor, single point]"},
      {"smiles": "CN1CCN(CCC(=O)Nc2ccc3c(c2)OCO3)CC1", "Potency": "inconclusive: 16.5 µM [inhibitor, single point]"},
      {"smiles": "CCCc1cc(C(=O)Nc2cccnc2)no1", "Potency": "inconclusive: 13.1 µM [inhibitor, partial curve, poor fit]"},
      {"smiles": "COc1ccc(-n2c(N)c(C(=O)Nc3c(C)n(C)n(-c4ccccc4)c3=O)c3nc4ccccc4nc32)cc1", "Potency": "active: 1.65 µM"},
      {"smiles": "O=C(NCc1ccco1)/C(=C/c1ccco1)NC(=O)c1ccc(Br)o1", "Potency": "inconclusive: 13.1 µM [inhibitor, single point]"},
      {"smiles": "Fc1cccc(Cn2cc(C(=S)N3CCOCC3)c3ccccc32)c1", "Potency": "inactive"},
      {"smiles": "COc1ccc(/C=N/NC(=O)C2COc3ccccc3O2)cc1OC", "note": "(stereo not given)", "Potency": "inactive"},
      {"smiles": "COCCN1C2=C(C(=O)CC(C)(C)C2)C(c2ccc(OC)c(OC)c2)C2=C1CC(C)(C)CC2=O", "Potency": "inconclusive: 18.5 µM [inhibitor, single point]"},
      {"smiles": "CCN(CC(=O)Nc1ccccc1OC)C(=O)c1ccc2[nH]c3c(c2c1)CC(C)CC3", "note": "(stereo not given)", "Potency": "inconclusive: 11.7 µM [inhibitor, single point]"},
      {"smiles": "CC1CN(S(=O)(=O)c2ccc(NC(=O)c3cc(-c4ccccc4O)n[nH]3)cc2)CC(C)O1", "note": "(stereo not given)", "Potency": "active: 0.928 µM"},
      {"smiles": "CCN(C(=O)c1cc2c(C)nc3ccccc3c2o1)c1cc(Cl)ccc1OC", "Potency": "inactive"},
      {"smiles": "Cc1cc(N/N=C/c2ccccc2O)nc(N2CCOCC2)n1", "Potency": "inconclusive: 13.1 µM [inhibitor, single point]"},
      {"smiles": "CC(C)CN1C(=S)SC(C)(C)C1n1oc(=O)n(-c2ccccc2)c1=O", "note": "(stereo not given)", "Potency": "inconclusive: 18.5 µM [inhibitor, single point]"},
      {"smiles": "CCN1CCN(C(=O)COc2ccc(S(=O)(=O)NC(C)C)cc2)CC1", "Potency": "inconclusive: 10.4 µM [inhibitor, single point]"},
      {"smiles": "Cc1cc(C)c(S(=O)(=O)N2CCOC2CNC(=O)C(=O)NCCN(C)C)c(C)c1", "note": "(stereo not given)", "Potency": "inactive"},
      {"smiles": "Cc1ccc(NC(=O)Nc2nnc(-c3ccncc3)s2)cc1C", "Potency": "inconclusive: 13.1 µM [inhibitor, single point]"},
      {"smiles": "CC(=O)N1CCN(C2=NC(=O)C(=C3CCCCC3)S2)CC1", "Potency": "inactive"},
      {"smiles": "Cc1nnc(NC(=O)CSc2nccn2Cc2ccc(F)cc2)s1", "Potency": "inconclusive: 3.29 µM [inhibitor, full curve, poor fit]"},
      {"smiles": "Cc1ccccc1S(=O)(=O)N1CCN(C)CC1", "Potency": "inconclusive: 11.7 µM [inhibitor, single point]"},
      {"smiles": "O=[N+]([O-])c1ccccc1Oc1ccccc1Cl", "Potency": "inactive"},
      {"smiles": "CCOC(=O)/C(C#N)=C/Nc1ccccc1NS(=O)(=O)c1ccc(C)c(C)c1", "Potency": "active: 2.94 µM"},
      {"smiles": "CCCCNC(=O)c1onc(CSc2ccccc2F)c1C(=O)O", "Potency": "inconclusive: 4.15 µM [inhibitor, single point]"},
      {"smiles": "COC(=O)c1cc(S(=O)(=O)C(C)C)c(S(C)=O)s1", "note": "(stereo not given)", "Potency": "inconclusive: 11.7 µM [inhibitor, partial curve]"},
      {"smiles": "COc1ccccc1-n1c(-c2ccccc2Br)nc2ccccc2c1=O", "Potency": "inconclusive: 10.4 µM [inhibitor, single point]"}
    ]}
  ]
}
